In one test the test system is A2780. In words: cell growth inhibition ratio vs untreated control (CCK8); higher = stronger inhibition of cell viability. Conditions: 10 µM; 48 h. The protocol: (§1)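 Natural product library (Topscience) screened at 10 µM final concentration for 48 h on ovarian cancer A2780 cells and patient-derived ovarian cancer cells (PDC) in 96-well plates; viability read by CCK8 and reported as inhibition ratio (%) relative to untreated control. Single-dose primary screen.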

The subject of test [1] is patient-derived ovarian cancer cells (PDC). The test is described as above. Particulars: 10 µM; 48 h. How it is done: as §1

Where a name gives a salt, the structure may show the parent alone. Some of the results follow. Many values rest on one well or one pass, so single values are uncertain.

Take `C=CCc1ccc(O)c(OC)c1` [Eugenol]: the “cell growth inhibition ratio” value was found to be 9.3% in the test with A2780 and 4.1% in test [1].
With `C[N+]1(C)CCCC1C(=O)O` (centres undefined) [Stachydrine Hydrochloride], the “cell growth inhibition ratio” value in the test on A2780 was found to be 17.8%; in test [1] it was 19.6%.
For the compound `CC(=O)[C@H]1CC[C@H]2[C@@H]3CC=C4C[C@@H](O)CC[C@]4(C)[C@H]3CC[C@]12C` [Pregnenolone], the entries for the “cell growth inhibition ratio” value (in the test on A2780; in test [1]) were 21.4% and 32.6%, respectively.
For `CCc1c2c(nc3ccc(OC(=O)N4CCC(N5CCCCC5)CC4)cc13)-c1cc3c(c(=O)n1C2)COC(=O)[C@]3(O)CC` [Irinotecan hydrochloride trihydrate], the “cell growth inhibition ratio” value with A2780 was 75.5%; in test [1], 41.7%.
In the case of `COc1ccc2cc1Oc1ccc(cc1)C[C@H]1c3cc(c(OC)cc3CCN1C)Oc1c(O)c(OC)cc3c1[C@H](C2)N(C)CC3` [(+)-Fangchinoline], the “cell growth inhibition ratio” value worked out at 91.7% in the test on A2780 and 78.1% in test [1].
For `CNC[C@H](O)c1ccc(O)c(O)c1` [Epinephrine bitartrate] the same measures were 2.57% and 20.2%.
Take `CC(C)=C[C@H]1C[C@](C)(O)[C@@H]2[C@H]3CC[C@@H]4[C@@]5(C)CC[C@H](O[C@@H]6OC[C@H](O)[C@H](O[C@@H]7O[C@H](CO)[C@@H](O)[C@H](O)[C@H]7O[C@@H]7OC[C@@H](O)[C@H](O)[C@H]7O)[C@H]6O[C@@H]6O[C@@H](C)[C@H](O)[C@@H](O)[C@H]6O)C(C)(C)[C@@H]5CC[C@@]4(C)[C@@]34CO[C@@]2(C4)O1` [Jujuboside B]: the figures for the “cell growth inhibition ratio” value (in the test with A2780; in test [1]) were 14.8% and -0.39%, respectively.
Take `COc1cc(-c2oc3cc(O)cc(O)c3c(=O)c2O[C@@H]2O[C@H](CO)[C@@H](O)[C@H](O)[C@H]2O[C@@H]2O[C@@H](C)[C@H](O)[C@@H](O)[C@H]2O)ccc1O`: the “cell growth inhibition ratio” value was 2.46% with A2780 and -5.29% in test [1].
As to `COc1c(O)cc2c(c1O)[C@@H]1O[C@H](CO)[C@@H](O)[C@H](O)[C@H]1OC2=O` [Bengenin], the “cell growth inhibition ratio” value was -7.83% in the test with A2780 and 4.16% in test [1].
For `COc1ccc2c(c1OC)C(=O)O[C@@H]2[C@H]1c2c(cc3c(c2OC)OCO3)CCN1C` [Noscapine hydrochloride], the “cell growth inhibition ratio” value in the test on A2780 came out at 5%; in test [1], 7.79%.
For the compound `COc1cc2c(cc1O)CC[n+]1cc3c(OC)c(OC)ccc3cc1-2` [Jatrorrhizine], the “cell growth inhibition ratio” value is -19.2% with A2780 and -22.3% in test [1].
On to `N[C@@H](Cc1c[nH]c2ccc(O)cc12)C(=O)O` [5-hydroxytryptophan (5-HTP)], for which the entries for the “cell growth inhibition ratio” value (with A2780; in test [1]) were -2.38% and -12.5%, respectively.
For `C[C@@]12C[C@@]3(O)O[C@@H](O1)[C@]1(COC(=O)c4ccccc4)[C@H]3C[C@@]12O[C@@H]1O[C@H](CO)[C@@H](O)[C@H](O)[C@H]1O` [Paeoniflorin], in that order: -9.15% and 0.254%.
As for `O=C([O-])[C@H](O)[C@@H](O)[C@H](O)[C@H](O)CO.[Na+]` [Sodium gluconate], the results for the “cell growth inhibition ratio” value (in the test on A2780; in test [1]) were 11.1% and -3.1%, respectively.
`CC[C@@H]1C(=O)OC[C@@H]1Cc1cncn1C` [Pilocarpine nitrate]: the “cell growth inhibition ratio” value in the test on A2780 was 2.17%; in test [1], -21.7%.
Regarding `COc1cc(/C=C/c2ccc(O)cc2)cc(OC)c1` [Pterostilbene], the “cell growth inhibition ratio” value in the test with A2780 amounted to 0.494%; in test [1], 5.13%.
On to `C=C1C(=O)O[C@@H]2C[C@@]3(C)CCCC(=C)[C@@H]3C[C@H]12` [Isoalantolactone], for which the “cell growth inhibition ratio” value was 38.9% with A2780 and 5.71% in test [1].
As for `CC(C)CCCC(C)C1CCC2C3CCC4CC(O)CCC4(C)C3CCC12C` (centres undefined) [Dihydrocholesterol], the entries for the “cell growth inhibition ratio” value (in the test with A2780; in test [1]) were 8.85% and 11.9%, respectively.
For `C[C@@H]1O[C@@H](O[C@H]2[C@H](O[C@H]3CC[C@@]4(C)[C@@H](CC[C@]5(C)[C@@H]4CC=C4[C@@H]6CC(C)(C)CC[C@]6(C(=O)O[C@@H]6O[C@H](CO[C@@H]7O[C@H](CO)[C@@H](O[C@@H]8O[C@@H](C)[C@H](O)[C@@H](O)[C@H]8O)[C@H](O)[C@H]7O)[C@@H](O)[C@H](O)[C@H]6O)CC[C@]45C)[C@]3(C)CO)OC[C@H](O)[C@@H]2O)[C@H](O)[C@H](O)[C@H]1O` [Hederacoside C], in that order: 8.8% and 1.29%.
For `CC[C@@]1(O)C(=O)OCc2c1cc1n(c2=O)Cc2cc3cc(O)ccc3nc2-1` [Hydroxy Camptothecine] the same measures were 89.9% and 85.4%.
Take `O=C1O[C@H]([C@@H](O)CO)C(O)=C1OP(=O)(O)O` [Sodium L-ascorbyl-2-phosphate]: the “cell growth inhibition ratio” value with A2780 is -2.17%; in test [1], 5.87%.
Turning to `Cc1[nH]ccc2c1[nH]c1cc(=O)ccc12` [Harmol], the “cell growth inhibition ratio” value came out at 55.7% in the test with A2780 and 26.6% in test [1].

The values are drawn from the supplement of paper PMC10373366.
